# Reference: PubChem BioAssay AID1259424 (University of Nebraska Medical Center, 2018)
# Test: 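Find knockdowns that reproduce the expression shifts seen after KSR1 loss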 (primary screen)
# Cells: human HCT116 colon cancer cells
# Knock-down reagent: siRNA pool against human genes, 50 nM
# Measurement: 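Six signature mRNAs by branched-DNA multiplex assay, scaled to two housekeeping genes and non-targeting median, log2; matched to mean KSR1 knockdown profile by Pearson correlation and euclidean distance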
# Scale: mean correlation with KSR1 profile: higher = expression change more like KSR1 knockdown
# This is an unselected part of about 14,000 deposited reagents. 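Higher correlation or smaller distance means closer resemblance to KSR1 loss; control wells, including KSR1 knockdowns, recur on many plates.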 Further read-outs or replicates are left out here. Not given: the time to read-out.
Target gene,mean correlation with KSR1 profile
SND1 (GeneID 27044),-0.0235
SUCO (GeneID 51430),-0.283
MEST (GeneID 4232),0.703
SF3B5 (GeneID 83443),-0.367
H2BC3 (GeneID 3018),-0.0537
CCDC136 (GeneID 64753),0.838
ANXA10 (GeneID 11199),0.514
DGKG (GeneID 1608),0.346
MAPK14 (GeneID 1432),0.221
FAM20A (GeneID 54757),-0.113
SYNJ1 (GeneID 8867),0.522
CFAP74 (GeneID 85452),0.748
CYP8B1 (GeneID 1582),-0.16
MCM4 (GeneID 4173),0.238
ASPHD2 (GeneID 57168),0.44
ATE1 (GeneID 11101),-0.164
ACACB (GeneID 32),0.0516
LZTS3 (GeneID 9762),0.263
OR2B6 (GeneID 26212),-0.101
PGLYRP1 (GeneID 8993),-0.663
RNASEL (GeneID 6041),0.454
ACD (GeneID 65057),0.575
EFS (GeneID 10278),0.0147
ACTL6B (GeneID 51412),-0.839
PIDD1 (GeneID 55367),-0.12
ATP1A4 (GeneID 480),-0.566
RTL8A (GeneID 26071),-0.505
TMEM242 (GeneID 729515),-0.0723

A run of entries taken from the entries so far, as a working copy:
Target gene,mean correlation with KSR1 profile
SND1 (GeneID 27044),-0.0235
SUCO (GeneID 51430),-0.283
MEST (GeneID 4232),0.703
SF3B5 (GeneID 83443),-0.367
H2BC3 (GeneID 3018),-0.0537

Further results:
Target gene,mean correlation with KSR1 profile
PRKG2 (GeneID 5593),0.0229
NACAD (GeneID 23148),-0.554
DUSP6 (GeneID 1848),-0.0897
PNO1 (GeneID 56902),-0.0655
CLPS (GeneID 1208),-0.551
SELENBP1 (GeneID 8991),0.727
DENND10P1 (GeneID 55855),0.145
LSAMP (GeneID 4045),-0.0805
ANKS1A (GeneID 23294),-0.601
IL38 (GeneID 84639),0.0329
SLC17A7 (GeneID 57030),-0.621
UQCRFS1 (GeneID 7386),-0.861
FPGT (GeneID 8790),-0.234
OPA3 (GeneID 80207),-0.142
NLGN4Y (GeneID 22829),-0.143
SETD2 (GeneID 29072),-0.0708
GPR17 (GeneID 2840),0.743
ZNF473 (GeneID 25888),0.114
GDPD3 (GeneID 79153),-0.141
BST2 (GeneID 684),-0.258
HAS1 (GeneID 3036),0.122
PTPRU (GeneID 10076),0.301
